Here are results for 54 sequences from publication PMC7819943, “Rice protein-binding microarrays: a tool to detect cis-acting elements near promoter regions in rice”.

Some of the results follow.

This assay addresses T1, OsSMF1 (Oryza sativa, UniProt Q6ZLB0 1-436).
T1 sequence: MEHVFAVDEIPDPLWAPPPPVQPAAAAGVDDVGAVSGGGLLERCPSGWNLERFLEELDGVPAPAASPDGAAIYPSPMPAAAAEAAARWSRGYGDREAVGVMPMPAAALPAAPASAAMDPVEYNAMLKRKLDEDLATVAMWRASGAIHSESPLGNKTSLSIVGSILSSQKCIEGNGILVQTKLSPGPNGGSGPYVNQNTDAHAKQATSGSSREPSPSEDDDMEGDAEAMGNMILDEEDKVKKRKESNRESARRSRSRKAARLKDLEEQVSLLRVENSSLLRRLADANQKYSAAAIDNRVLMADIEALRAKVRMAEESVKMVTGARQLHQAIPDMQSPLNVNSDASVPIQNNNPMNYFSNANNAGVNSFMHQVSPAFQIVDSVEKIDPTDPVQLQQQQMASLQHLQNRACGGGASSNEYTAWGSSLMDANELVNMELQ
The assay is described as follows: protein-binding microarray (RPBM); PBS, 2% BSA, 51.3 ng/ul salmon testes DNA, 50 uM zinc acetate, 200 nM TF, 25 C, 1 h; high values mean tight binding. Conditions: protein: recombinant; tags: N-terminal polyhistidine and DsRed monomer fusion (pET32a); chain copies: 2; label: CyDye5-dUTP incorporated in the synthesized complementary strand; 3' TTTTT single-stranded linker to array surface; dsDNA, one strand shown. Summed up: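 Transcription factors were made in E. coli BL21-CodonPlus as N-terminal fusions to a polyhistidine tag and DsRed, then purified on Ni–NTA. After primer extension with Cy5-dUTP and blocking with 2% BSA, a custom Agilent array was exposed for 1 h at 25 °C to 200 nM protein in PBS, 2% BSA, salmon testes DNA and 50 µM zinc acetate. Washed arrays were scanned on an Axon 4000B, and the binding signal is per-feature fluorescence intensity in arbitrary units.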
For the sequence “ACTCCAGTATGTATGAGTGTTGTGTTTGAGGGGTGTGTATCGGAGTCACCTAGTGCAG”, the binding signal was 4050 fluorescence intensity (a.u.).

Regarding “CTACTAATTAGTAGTGCTGTGCATAAGCTCAGACTCAGGGCGGAGTCACCTAGTGCAG”, the binding signal is 3350 fluorescence intensity (a.u.).

Consider “AATAATTTCATAACTCGCCTGGAAACCACGTGACGAATCTCGGAGTCACCTAGTGCAG”, for which the binding signal was 4280 fluorescence intensity (a.u.). As for “TTTTGAGCTACCTTCTGGTGTTTTGACGTGTTATATTCATCGGAGTCACCTAGTGCAG”, the binding signal was 5140 fluorescence intensity (a.u.). Turning to “GTTTGGAATTTTGGATAGAAATTCCGGGCGTGACACATCGCGGAGTCACCTAGTGCAG”, the binding signal was 5880 fluorescence intensity (a.u.). Take “GCCAGCACTAGATGAGCTACCGCTGCCCTAGATGTTGGGTCGGAGTCACCTAGTGCAG”: the binding signal is 10300 fluorescence intensity (a.u.). Next, “GCCTCTTCGTTCAAACTTCAAACCAAGCTTTGGCCTTTGGCGGAGTCACCTAGTGCAG”: 3400 fluorescence intensity (a.u.); “TACACGGGAAGCATACGTGCATACGATATGTTCCCAATGACGGAGTCACCTAGTGCAG”: 3290 fluorescence intensity (a.u.); “CTGTGCTTCTCCTCCGCGCTCCACATCACATCGCATCACCCGGAGTCACCTAGTGCAG”: 5050 fluorescence intensity (a.u.).

“CAACGGCTATGAGCTGTCACACACTCACAGTAGTACTCCGCGGAGTCACCTAGTGCAG”: the binding signal was 3850 fluorescence intensity (a.u.). For “TGCAATAATGCATTCTTAACGTCGAGTTGATGAATCAGCCCGGAGTCACCTAGTGCAG”, the binding signal is 3820 fluorescence intensity (a.u.). Next, “ACATGTAGCACGAGCCGTTCCTTGTGCCACCCAGACGAATCGGAGTCACCTAGTGCAG”: 3420 fluorescence intensity (a.u.); “AGTTTTCTCCGAAAACAGATGACTGAGATTTGTTTAGGTACGGAGTCACCTAGTGCAG”: 22800 fluorescence intensity (a.u.). Next, “CACTACCTGCATCTCCACGTCGCCGTCTCCATCAGATCATCGGAGTCACCTAGTGCAG”: 4830 fluorescence intensity (a.u.). The figure for “AGACTCCACTGATTATCAGCCTCCTACCCCTACCTGTCAACGGAGTCACCTAGTGCAG” is 3240 fluorescence intensity (a.u.); for “CTGGGCTTAATAATCTTCTTCCTCTTGTTCTTCTATAAGTCGGAGTCACCTAGTGCAG” it is 3310 fluorescence intensity (a.u.). For the sequence “GCCGCCACGCGTCGCAGTGCCTCCTCCACCTTCCTCGTCACGGAGTCACCTAGTGCAG”, the binding signal is 5530 fluorescence intensity (a.u.). Next, “ATCTGAACACTGAATTATCGCCACGGATTATTTGGTCCATCGGAGTCACCTAGTGCAG”: 3190 fluorescence intensity (a.u.); “CTATCTTCCGTTCCACCCGCTCCCGTTGAGCTCAATTATCCGGAGTCACCTAGTGCAG”: 4720 fluorescence intensity (a.u.); “AATAAGTTGTAGACTGACTAATCACCCCTCTTCTCCCGAACGGAGTCACCTAGTGCAG”: 3510 fluorescence intensity (a.u.).

Regarding “ATTTTGATCATAAAGCTTGATCATTTATCATATTTAAAAGCGGAGTCACCTAGTGCAG”, the binding signal is 19400 fluorescence intensity (a.u.). Next, “CTTAACGGCCTGCTGATAGCATAATGAGCCTTAGAAAATTCGGAGTCACCTAGTGCAG”: 3880 fluorescence intensity (a.u.); “TGCAAAGTTTATACACGTGTATATAAAGTTTGTATATGTGCGGAGTCACCTAGTGCAG”: 12900 fluorescence intensity (a.u.); “CGACCGAGCGAGGAGGGGCGGCGCCGTTCTGCTGGGCATCCGGAGTCACCTAGTGCAG”: 7440 fluorescence intensity (a.u.).

In the case of “TTCATCTGTTTAGATCTCAGTGTGTTTTCGAAATTTTAACCGGAGTCACCTAGTGCAG”, the binding signal was 30800 fluorescence intensity (a.u.). Take “AGTACTACCTTCATCTCTGACTCATAGCAATATACATACACGGAGTCACCTAGTGCAG”: the binding signal was 5390 fluorescence intensity (a.u.). Next, “AGGCCAACAACAGCCAAATGCCACCTAGGGTGTTGCTTGCCGGAGTCACCTAGTGCAG”: 4150 fluorescence intensity (a.u.); “CCATGGCCTCGCATGAGTCACTGACGTGTGTGGTGGTGCACGGAGTCACCTAGTGCAG”: 6580 fluorescence intensity (a.u.). The figure for “TAGGTCTTCGTCCCACGTGGCATTGACGTGGCGCTTACGCCGGAGTCACCTAGTGCAG” is 30000 fluorescence intensity (a.u.); for “AATGCTGACACGATTGCCACGTGTATGCTACTTAGGACAACGGAGTCACCTAGTGCAG” it is 31000 fluorescence intensity (a.u.); for “CGGCGGTGACGGCAGCTGCAGGGGCCACGCGCCCACGCCCCGGAGTCACCTAGTGCAG” it is 4090 fluorescence intensity (a.u.). The figure for “AATCACTCCGCGTCATCTTGTTGTCTACTCCATCATATGCCGGAGTCACCTAGTGCAG” is 11000 fluorescence intensity (a.u.); for “TCGCCACCAACTCCGAGCGACAACCGGTACTTTCTCCTTCCGGAGTCACCTAGTGCAG” it is 3150 fluorescence intensity (a.u.). On to “CTGATACGTCCCACTAGAAACAAGCACGTGTATATCATCGCGGAGTCACCTAGTGCAG”, for which the binding signal was 3390 fluorescence intensity (a.u.). As for “CCAACATATATATTTATATTATGTACACACACATATATAGCGGAGTCACCTAGTGCAG”, the binding signal was 4620 fluorescence intensity (a.u.).

As for “CCATGTCCACACAGCACGGGTTGGCTACTTGGCTGGTTCTCGGAGTCACCTAGTGCAG”, the binding signal was 3450 fluorescence intensity (a.u.). Regarding “AGTTGCTGTTGTTTAAATTGTGTGTGACAGCAGACAGCTACGGAGTCACCTAGTGCAG”, the binding signal is 3180 fluorescence intensity (a.u.). As for “TGTAGTGGCTTTGCATTGACGTGTAATGCAGTGCACACTGCGGAGTCACCTAGTGCAG”, the binding signal is 10300 fluorescence intensity (a.u.). Next, “GTTTCTTGGTCGTGGGGTCGAGGAGGTGGTGGGTGGTGGTCGGAGTCACCTAGTGCAG”: 4370 fluorescence intensity (a.u.).

As for “CATCTGTTTACTTTGTCTTGTTAACTCTCTTGCCACATCACGGAGTCACCTAGTGCAG”, the binding signal was 4730 fluorescence intensity (a.u.). Next, “GGTGTGGATCAGCGGAGAAAAGCTACCACGTCAACTGAATCGGAGTCACCTAGTGCAG”: 5180 fluorescence intensity (a.u.). Next, “AAACATCGGGAAGGGACTGAGCCACGCTATACTCCCAACACGGAGTCACCTAGTGCAG”: 23900 fluorescence intensity (a.u.); “GGGGAGCTTTGCCCCTGCGCACACTTGTCACGCTCACGCACGGAGTCACCTAGTGCAG”: 3220 fluorescence intensity (a.u.). Next, “GAGTGCGCTATTTTCTGGATGGAGGACGTGACAGCATATCCGGAGTCACCTAGTGCAG”: 3760 fluorescence intensity (a.u.); “CGTCTGCTGTAAACGCGGCTATCACGGCTGCTGCGTGTCTCGGAGTCACCTAGTGCAG”: 3820 fluorescence intensity (a.u.). Regarding “CCACATGTCAGTGACTGGGCCTTGCTCGATATATCCGCGCCGGAGTCACCTAGTGCAG”, the binding signal is 3690 fluorescence intensity (a.u.).

With “ATAGATATATTGACATGTCACATCCTTATTGAACTCGATACGGAGTCACCTAGTGCAG”, the binding signal was 5890 fluorescence intensity (a.u.). The figure for “CGGCTATTGTGCTGACGGCAAGCACCGGTTTGTCGTCTACCGGAGTCACCTAGTGCAG” is 3690 fluorescence intensity (a.u.); for “AGACATTTTGCCAGATAATTGGCATGCATGCAGCCTACCACGGAGTCACCTAGTGCAG” it is 3200 fluorescence intensity (a.u.); for “AGGCAAGCACGAGAGTCACAGATACATATCCCCTTTAATCCGGAGTCACCTAGTGCAG” it is 35600 fluorescence intensity (a.u.).

Take “GTATAAATTAGATGTTATCCATCGTCATAGCCATCGAAATCGGAGTCACCTAGTGCAG”: the binding signal was 3340 fluorescence intensity (a.u.). Next, “CACCTCACCTGGAGCCCACCTGCCATTGACTCCGCCGCGCCGGAGTCACCTAGTGCAG”: 4760 fluorescence intensity (a.u.); “GCTGCCGCGTGTGGTTGCCGACTGTACGGACACCCCAGCCCGGAGTCACCTAGTGCAG”: 3580 fluorescence intensity (a.u.).

In the case of “TGTTGGCGATCACGCTCACGACTCGCTTTCGGGACGAGGACGGAGTCACCTAGTGCAG”, the binding signal is 3170 fluorescence intensity (a.u.).
